Reference: paper PMC12053450

Target: T1, SLC38A9 (human (endogenous in U87MG)) (UniProt Q8NBW4)
T1 sequence: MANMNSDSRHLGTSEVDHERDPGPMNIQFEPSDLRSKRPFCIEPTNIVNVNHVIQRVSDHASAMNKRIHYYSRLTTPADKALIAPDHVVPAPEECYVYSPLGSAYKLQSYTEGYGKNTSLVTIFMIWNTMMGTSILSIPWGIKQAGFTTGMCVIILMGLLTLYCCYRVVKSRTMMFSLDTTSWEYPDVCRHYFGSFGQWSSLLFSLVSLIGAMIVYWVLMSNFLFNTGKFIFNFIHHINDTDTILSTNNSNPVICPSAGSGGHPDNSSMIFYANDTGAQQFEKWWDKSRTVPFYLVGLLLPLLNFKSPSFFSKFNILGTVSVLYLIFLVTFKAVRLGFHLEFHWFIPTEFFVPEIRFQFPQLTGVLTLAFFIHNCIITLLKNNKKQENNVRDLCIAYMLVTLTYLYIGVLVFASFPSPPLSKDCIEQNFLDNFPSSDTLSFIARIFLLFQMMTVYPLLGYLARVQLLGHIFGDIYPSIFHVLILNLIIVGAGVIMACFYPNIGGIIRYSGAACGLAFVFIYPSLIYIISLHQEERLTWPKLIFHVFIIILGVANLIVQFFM
Experiment: co-IP; SLC38A9 captured from U87MG lysate (400 μl) with 30 μg biotinylated anti-SLC38A9 antibody overnight at 4°C, then incubated with Tat or mutant Tat (10 μg in 90 μl TBS) overnight at 4°C; eluate immunoblotted for Tat; biotinylated isotype IgG as negative control; only the binder purified

With HIV-1 Tat the binding was “binds”.

These are yes or no findings as the source states them, for the method shown. In cells and extracts the contact can be indirect. Binding calls can cover weak binding; strength is not graded here.
